Test results as given in publication PMC12356253.

Amino acid sequences for entries named in this document (tags omitted). Residues count along the entry.
UniProt P31040, residues 43-664: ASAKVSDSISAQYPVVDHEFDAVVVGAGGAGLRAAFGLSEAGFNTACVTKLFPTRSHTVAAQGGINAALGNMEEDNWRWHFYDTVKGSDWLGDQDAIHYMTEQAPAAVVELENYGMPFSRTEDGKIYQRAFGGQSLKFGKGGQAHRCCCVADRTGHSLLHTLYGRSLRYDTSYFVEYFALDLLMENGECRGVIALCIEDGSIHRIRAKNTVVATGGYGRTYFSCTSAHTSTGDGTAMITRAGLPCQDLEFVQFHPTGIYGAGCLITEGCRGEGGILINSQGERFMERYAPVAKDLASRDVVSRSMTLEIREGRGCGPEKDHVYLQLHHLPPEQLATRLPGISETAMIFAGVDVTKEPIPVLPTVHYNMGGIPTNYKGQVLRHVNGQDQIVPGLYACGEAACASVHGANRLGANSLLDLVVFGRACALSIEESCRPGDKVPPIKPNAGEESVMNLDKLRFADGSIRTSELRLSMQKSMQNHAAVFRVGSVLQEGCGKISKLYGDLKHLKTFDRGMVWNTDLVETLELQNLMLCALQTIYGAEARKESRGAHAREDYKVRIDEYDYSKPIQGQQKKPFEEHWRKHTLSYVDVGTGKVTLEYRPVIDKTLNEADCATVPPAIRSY

How the values were obtained:
SDHAF2^FLAG (human) = target: T1, SDHAF2^FLAG (human) (UniProt Q9NX18); test: affinity purification with mass spectrometry; IPMS: cells solubilised in 20 mM tris-Cl pH 7.4, 50 mM NaCl, 10% glycerol, 0.1 mM EDTA, 1% digitonin, benzonase; FLAG beads, 2 hours at 4°C; eluted with FLAG peptide; LC-MS/MS; for SDHAF2^FLAG also at increasing concentrations of doxycycline
T1 sequence: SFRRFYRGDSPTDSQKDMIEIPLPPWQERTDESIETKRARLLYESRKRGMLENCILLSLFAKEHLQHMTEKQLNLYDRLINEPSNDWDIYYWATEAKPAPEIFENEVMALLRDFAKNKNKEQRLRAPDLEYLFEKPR

SDHB^FLAG = target: T2, SDHB^FLAG (UniProt P21912); test: as above
T2 sequence: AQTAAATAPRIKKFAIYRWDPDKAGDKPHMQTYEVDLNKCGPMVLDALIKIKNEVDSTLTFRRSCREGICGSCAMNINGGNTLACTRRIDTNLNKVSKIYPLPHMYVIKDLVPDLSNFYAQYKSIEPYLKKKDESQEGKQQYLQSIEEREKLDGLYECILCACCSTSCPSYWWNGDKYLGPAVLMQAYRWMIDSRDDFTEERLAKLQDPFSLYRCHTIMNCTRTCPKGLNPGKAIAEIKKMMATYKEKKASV

Substance | binding (SDHAF2^FLAG (human)) | binding (SDHB^FLAG)
SDHA (from UniProt P31040 43-664) | binds | 
unmodified SDHA (from UniProt P31040 43-664) | binds | 
flavinated-SDHA (from UniProt P31040 43-664) | binds | binds

No constants are given. Whether binding was seen depends on the method and setting. Binding seen in cells or lysates may run through a third protein. Here binding means that the protein was enriched with, or labelled near, the bait; the list need not be complete. Tags and fused reporters may be left off the sequences shown.
